Measurements: patent US12534469B2 (CHILDREN'S HOSPITAL MEDICAL CENTER, priority 2020, dated 2026)
Some results were stated once for a whole list of compounds, not compound by compound.

System: MOLM14 (D835Y) cells
Assay: Combination drug screening, 10 x 10 matrix, cell viability (Cell Titer Glo)
Assay type: cell-based
Settings: vs. CG-806, Gilteritinib hemifumerate, Quizartinib, CA-4948
Method: Briefly, 10 nL of compounds were acoustically dispensed into 1536-well white polystyrene tissue culture-treated plates with an Echo 550 acoustic liquid handler (Labcyte). MOLM14 (D835Y) cells were then added to compound-containing plates at a density of 500-cells/well in 5 μL of medium. A 10-point custom concentration range was used for all listed drugs. Plates were incubated for 48 hours at standard incubator conditions covered by a stainless steel gasketed lid to prevent evaporation. 48 h post compound addition, 3 μL of Cell Titer Glo (Promega) were added to each well and plates were incubated at room temperature for 15 minutes with the stainless-steel lid in place. Luminescence readings were taken using a Viewlux imager (PerkinElmer) with a 2 second exposure time per plate.
However, different methodologies may yield different numerical scores, and different definitions of what constitutes a deviation from mere additivity vs true drug synergy.
However, the utility in certain drug combinations vs others should not be distinguished based on cutoffs between HSA scores, because the score itself is only a relative indicator that is completely dependent on experimental design and is not an absolute number. […]

Compound: COc1cc2ncc(-c3nc(N[C@@H]4CCCNC4)c(F)cc3F)n2nc1C1CC1 [Compound 106, (R)-6-(6-cyclopropyl-7-methoxyimidazo[1,2-b]pyridazin-3-yl)-3,5-difluoro-N-(piperidin-3-yl)pyridin-2-amine]
- more potent than known FLT3 inhibitors in producing the same degree of synergy with Venetoclax: 30-300 ×
